Experimental data reported in PubChem BioAssay AID540256 (National Center for Advancing Translational Sciences (NCATS), 2011).
About 3,700 (1.2%) of roughly 300,000 compounds were called active. The shares of active, inactive and inconclusive entries below differ from those in the screen. Calls follow the shape of the full dose curve; tested in HEK293 cells. Potencies beside an inconclusive call are fits to weak or partial responses and may not hold up.

Assay: qHTS for Inhibitors of binding or entry into cells for Lassa Virus; also: nearly all actives have a fitted effect of over 50% in size
Details: Lassa virus pseudotype entry inhibition, cell reporter; series mostly up to 37.9 µM
Potency is read from the fitted curve at half-maximal effect.

Compound | Potency
Cc1cnc(C(=O)OCC(=O)N2CCC(C)CC2)cn1 | inconclusive: 7.08 µM [activator, full curve]
O=C(Nc1ccc(Cl)c(S(=O)(=O)Nc2ccccc2Cl)c1)c1cccs1 | inconclusive: 14.6 µM [inhibitor, partial curve]
CCN1CCN(c2cc(C)c3cc(NC(=O)c4cc(Br)ccc4Cl)ccc3n2)CC1 | inconclusive: 35.5 µM [inhibitor, single point]
Cc1nc(SCC(=O)N2CCCc3ccccc32)c2oc3ccccc3c2n1 | inconclusive: 13 µM [inhibitor, partial curve, poor fit]
Cc1sc2nc(-c3ccccc3)oc(=O)c2c1C | inconclusive: 12.6 µM [inhibitor, partial curve, poor fit]
CN(C)c1ccc(CNC(=O)Cn2c(=O)oc3cc(S(=O)(=O)NCc4ccccc4)ccc32)cc1 | inconclusive: 17.8 µM [inhibitor, single point]
Cc1cnc(CN(C)C(=O)CC2C(=O)NCCN2CCCc2ccccc2)[nH]1 (configuration not stated) | inactive
COc1ccc(NC(=O)c2cc3ccc(O)cc3o/c2=N\O)cc1 | inconclusive: 6.31 µM [inhibitor, full curve, poor fit]
CCOC(=O)C1=NNC2(c3ccc(Cl)cc3)C(=O)N(c3ccc(C)cc3)C(=O)C12 (configuration not stated) | inconclusive: 5.62 µM [activator, partial curve, poor fit]
CCOC(=O)c1nc2c(ccc3ccccc32)cc1C | inactive
CC(C)CC(=O)NC(=S)Nc1ccc(N2CCN(C(=O)c3cccs3)CC2)cc1 | active: 5.62 µM
Cc1ccn2c(NC(=O)C(C)(C)Oc3ccc(Cl)cc3)c(-c3cccs3)nc2c1 | inconclusive: 6.31 µM [inhibitor, partial curve, poor fit]
COc1ccc(C(=O)N/N=C/c2ccc(OC)c(CN3CCCc4ccccc43)c2)cc1 | inconclusive: 20.6 µM [inhibitor, partial curve, poor fit]
Cc1cc(=O)n2nc(N3CCC(C(=O)NCc4ccccc4F)CC3)sc2n1 | inactive
CCN(CCCNC(=O)CSc1cc(=O)n(C)c2cc(Cl)ccc12)c1ccccc1 | inconclusive: 35.5 µM [inhibitor, single point]
CCOC(=O)c1c(NC(=O)C2CCCN(S(=O)(=O)c3ccccc3)C2)sc2c1CCCC2 (configuration not stated) | inconclusive: 35.5 µM [inhibitor, single point]
O=C(CN1CCC(C(O)(c2ccccc2)c2ccccc2)CC1)Nc1cc(Cl)ccc1Cl | active: 8.2 µM
CC(OC(=O)CCCN1C(=O)c2ccccc2C1=O)C(=O)Nc1ncc(Cl)cc1Cl (configuration not stated) | inconclusive: 0.0073 µM [inhibitor, partial curve, poor fit]
CCOC(=O)c1ccc(COC(=O)c2nonc2N)cc1 | inactive
COc1ccccc1N(C(=O)c1snc(C(N)=O)c1N)C(C(=O)NCc1ccccc1)c1ccc(O)cc1 (configuration not stated) | active: 4.47 µM
CCCCCn1nc(C)c2c(C)cc(=O)[nH]c21 | inconclusive: 0.708 µM [inhibitor, partial curve, poor fit]
NNC(=O)C1C(O)CCC2CN3CCc4c([nH]c5ccccc45)C3CC21 (configuration not stated) | inactive
O=C(NCCN1C(=O)S/C(=C\c2ccc(Cl)c([N+](=O)[O-])c2)C1=O)C1=COCCO1 | inconclusive: 35.5 µM [inhibitor, single point]

Reformatted as a markdown table: 14 of the compounds above.

| Compound | Potency |
| --- | --- |
| CCN1CCN(c2cc(C)c3cc(NC(=O)c4cc(Br)ccc4Cl)ccc3n2)CC1 | inconclusive: 35.5 µM [inhibitor, single point] |
| Cc1nc(SCC(=O)N2CCCc3ccccc32)c2oc3ccccc3c2n1 | inconclusive: 13 µM [inhibitor, partial curve, poor fit] |
| Cc1sc2nc(-c3ccccc3)oc(=O)c2c1C | inconclusive: 12.6 µM [inhibitor, partial curve, poor fit] |
| CN(C)c1ccc(CNC(=O)Cn2c(=O)oc3cc(S(=O)(=O)NCc4ccccc4)ccc32)cc1 | inconclusive: 17.8 µM [inhibitor, single point] |
| CCOC(=O)C1=NNC2(c3ccc(Cl)cc3)C(=O)N(c3ccc(C)cc3)C(=O)C12 (configuration not stated) | inconclusive: 5.62 µM [activator, partial curve, poor fit] |
| CC(C)CC(=O)NC(=S)Nc1ccc(N2CCN(C(=O)c3cccs3)CC2)cc1 | active: 5.62 µM |
| Cc1ccn2c(NC(=O)C(C)(C)Oc3ccc(Cl)cc3)c(-c3cccs3)nc2c1 | inconclusive: 6.31 µM [inhibitor, partial curve, poor fit] |
| Cc1cc(=O)n2nc(N3CCC(C(=O)NCc4ccccc4F)CC3)sc2n1 | inactive |
| CCOC(=O)c1c(NC(=O)C2CCCN(S(=O)(=O)c3ccccc3)C2)sc2c1CCCC2 (configuration not stated) | inconclusive: 35.5 µM [inhibitor, single point] |
| CCOC(=O)c1ccc(COC(=O)c2nonc2N)cc1 | inactive |
| COc1ccccc1N(C(=O)c1snc(C(N)=O)c1N)C(C(=O)NCc1ccccc1)c1ccc(O)cc1 (configuration not stated) | active: 4.47 µM |
| CCCCCn1nc(C)c2c(C)cc(=O)[nH]c21 | inconclusive: 0.708 µM [inhibitor, partial curve, poor fit] |
| NNC(=O)C1C(O)CCC2CN3CCc4c([nH]c5ccccc45)C3CC21 (configuration not stated) | inactive |
| O=C(NCCN1C(=O)S/C(=C\c2ccc(Cl)c([N+](=O)[O-])c2)C1=O)C1=COCCO1 | inconclusive: 35.5 µM [inhibitor, single point] |

(further entries)

Compound | Potency
CC(=O)Nc1ccccc1OCc1cc(=O)n2c(C)csc2n1 | inactive
Cc1cccc(CN2CCN(C3CN(CCc4ccccc4)S(=O)(=O)C3)CC2)c1 (configuration not stated) | inconclusive: 3.15 µM [activator, partial curve, poor fit]
Cc1ccc(-c2nc(C)c(CCNC(=O)C(=O)Nc3ccc(C)c(Cl)c3)s2)cc1 | inconclusive: 3.55 µM [activator, single point]
CCOC(=O)c1cnn(-c2cc(C(C)(C)C)nc3c(-c4ccccc4)c(C)nn23)c1N | inconclusive: 7.3 µM [activator, partial curve, poor fit]
CCC(C)(CC(=O)Nc1nccs1)c1ccccc1 (configuration not stated) | inconclusive: 0.316 µM [inhibitor, partial curve, poor fit]
CCC(=NCc1ccco1)c1c(C(F)(F)F)[nH]n(-c2nc3ccccc3s2)c1=O | inconclusive: 0.13 µM [activator, partial curve, poor fit]
COc1cccc(-c2nn(C)c3sc(C(=O)NCc4ccc(C)cc4)cc23)c1 | inconclusive: 1.58 µM [inhibitor, full curve, poor fit]
CC(C)C[C@H]1COc2cc(Br)ccc2S(=O)(=O)N1 | inactive
O=C1CC2(CCN(C(=O)c3cccc(Br)c3)CC2)Oc2ccccc21 | inactive
CC(=O)N1c2ccc(S(=O)(=O)NCc3ccc(Cl)cc3)cc2CC1C (configuration not stated) | inactive
COc1ccc(NC(=O)COc2cccc(-n3cnnn3)c2)cc1 | inactive
CCCC(C(=O)NCc1ccco1)N(C(=O)CNS(=O)(=O)c1ccccc1)c1ccccc1OC (configuration not stated) | inconclusive: 11.2 µM [inhibitor, partial curve, poor fit]
O=C(Nc1ccccc1N1CCOCC1)c1ccc([N+](=O)[O-])s1 | inactive
O=C1N/C(=N/N=C/c2ccccc2O)SC1Cc1ccc(F)cc1 (configuration not stated) | inconclusive: 3.55 µM [inhibitor, partial curve]
Cc1ccc(C)[n+](CC(=O)N2CCCCC2)c1 | inconclusive: 11.2 µM [inhibitor, partial curve, poor fit]
COc1ccc(CNC(=O)c2cnn(-c3ccc(OC)cc3)c2C2CCN(C(=O)OC(C)(C)C)CC2)cc1 | inconclusive: 1.41 µM [inhibitor, full curve, poor fit]
Cc1ccc(C)c(N2CCN(C(=O)Cc3cn(C)c4ccccc34)CC2)c1 | active: 20.6 µM
COc1cccc(OC)c1C(=O)NC(=S)Nc1ccc2oc(-c3ccncc3)nc2c1 | inconclusive: 18.3 µM [inhibitor, single point]
CCC(C)c1ccc(NC(=S)NCCn2cc(Br)cn2)cc1 (configuration not stated) | inconclusive: 10 µM [inhibitor, partial curve, poor fit]
CN(C)CCN(C(=O)/C=C/c1cccs1)c1nc2ccc(F)cc2s1 | inconclusive: 35.5 µM [inhibitor, single point]
CCc1cccc(N=c2c([N+](=O)[O-])nn(-c3ccc4c(c3)OCCO4)n2O)c1 | inconclusive: 20 µM [inhibitor, single point]
CCOc1cc(C)c(Cl)cc1S(=O)(=O)NCc1ccc2c(c1)OCO2 | inconclusive: 20 µM [inhibitor, partial curve, poor fit]
Cc1cc(C)c2ccc(N)nc2c1O | inconclusive: 20 µM [inhibitor, single point]

Compound | Potency
O=C1C2C3C=CC(O3)C2C(=O)N1CC(O)c1ccccc1 (configuration not stated) | inactive
Cc1onc(-c2c(F)cccc2Cl)c1C(=O)OCC(=O)Nc1cccc(S(=O)(=O)N(C)C)c1 | inconclusive: 22.4 µM [inhibitor, single point]
Cc1cc2cc(CN(Cc3ccc4c(c3)OCO4)C(=O)c3ccco3)c(=O)[nH]c2cc1C | inactive
CCCN(CCC)c1nc(NC2CCN(C(=O)OCC)CC2)nc(OC)n1 | inconclusive: 22.4 µM [inhibitor, single point]
O=C1Nc2ccccc2/C1=C/c1nc2ccccc2c(=O)n1-c1ccc(O)cc1 | inconclusive: 11.2 µM [inhibitor, partial curve]
CC(=O)c1ccc(OCCCC(=O)Nc2ccc(C)c(S(=O)(=O)N3CCCCC3)c2)cc1 | inconclusive: 8.91 µM [inhibitor, partial curve, poor fit]
COc1ccc(/C=N/Nc2nccnc2Cl)cc1 | active: 8.2 µM
CCc1cc(=O)n2c([nH]c3ccccc32)c1C#N | inactive
CCOc1cccc2cc(C(=O)NCc3ccc(Cl)cc3)c(=N)oc12 | inconclusive: 35.5 µM [inhibitor, single point]
CC(=O)c1sc(NC(=O)c2ccc(Cn3cc(Br)cn3)o2)nc1C | inactive
Cc1cc(C)c(O)c(CN(C)Cc2cc(Cl)cc(Cl)c2O)c1 | inconclusive: 5.62 µM [inhibitor, full curve, poor fit]
Cc1ccc(N2C(=O)c3cccc([N+](=O)[O-])c3C2=O)cc1C | inactive
COc1ccc(CCn2c(C)cc(C(=O)CSc3nnnn3-c3ccccc3)c2C)cc1OC | inconclusive: 14.6 µM [inhibitor, partial curve, poor fit]
O=C1c2[nH]nc(-c3ccccc3O)c2C(c2cccc(Br)c2)N1Cc1ccncc1 (configuration not stated) | inconclusive: 1.26 µM [inhibitor, full curve, poor fit]
CC1CCCN(S(=O)(=O)c2cc3c4c(c2)CCN4C(=O)CC3)C1 (configuration not stated) | inconclusive: 3.98 µM [inhibitor, single point]
CSCCC(NC(=O)c1ccco1)C(=O)N1CC=C(c2ccccc2)CC1 (configuration not stated) | inactive
COc1ccc(NC(=O)Cn2ccn(Cc3ccccc3)c(=O)c2=O)cc1Cl | inactive
Cc1c(NC(=O)CCCCCN2C(=O)c3ccccc3C2=O)c(=O)n(-c2ccccc2)n1C | inactive
CC1CCCN(C2=NC(=O)/C(=C/c3cn(-c4ccccc4)nc3-c3cccc(S(=O)(=O)N(C)C)c3)S2)C1 (configuration not stated) | inactive
CCOC(=O)c1ccc(NC(=O)c2cccc3c(=O)c4c([nH]c23)CCCC4)cc1 | inconclusive: 2.51 µM [activator, full curve]
COc1ccc(-n2c(Cc3ccccc3)nnc2SCc2nc(-c3ccccc3C)no2)cc1 | inactive
